The chains behind the UniProt entries cited, without tags or fusion partners.
UniProt P41146, whole entry: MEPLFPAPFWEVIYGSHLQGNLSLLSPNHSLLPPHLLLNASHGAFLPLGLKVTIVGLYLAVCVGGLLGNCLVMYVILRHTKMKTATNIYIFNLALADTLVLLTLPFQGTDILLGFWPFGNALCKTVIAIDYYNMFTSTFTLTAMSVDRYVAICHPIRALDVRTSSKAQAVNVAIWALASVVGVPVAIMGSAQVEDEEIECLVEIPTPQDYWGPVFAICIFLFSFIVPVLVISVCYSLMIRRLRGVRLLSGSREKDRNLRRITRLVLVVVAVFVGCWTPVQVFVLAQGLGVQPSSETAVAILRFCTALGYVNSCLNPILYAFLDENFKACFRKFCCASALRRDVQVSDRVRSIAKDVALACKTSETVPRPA

According to ChEMBL document CHEMBL1143970, “Structure-activity relationships and CoMFA of N-3 substituted phenoxypropyl piperidine benzimidazol-2-one analogues as NOP receptor agonists with analgesic properties” (Bioorg Med Chem, 2008):

Target: Nociceptin receptor (Homo sapiens, UniProt P41146)
Assay: Displacement of [3H]nociceptin from human NOP receptor expressed in CHO cells

`COc1ccc(C)c(OC(CCN2CCC(n3c(=O)n(Cc4ncn[nH]4)c4ccccc43)CC2)C(C)C)c1` (stereo unspecified) was tested, and the Log Ki was -9.05 and -8.76.

The source holds more than one record for some entries. This list holds those alone. There may be further records. Values that stand side by side differ for a reason that is not stated; dose, time, organism, isomer or construct need not be as stated for each record.
